Laboratory results: paper doi:10.1101/2021.10.01.462752

Sequences of proteins named here, by UniProt entry; tags and fusion partners are left off. A change or cut given only in a name is not applied to a line headed by its entry. A line that says so, or that is headed by a name, gives the form on record, which may keep a tag or linker.
FLAG-tagged Jade1S (murine) (Q6ZPI0, form named): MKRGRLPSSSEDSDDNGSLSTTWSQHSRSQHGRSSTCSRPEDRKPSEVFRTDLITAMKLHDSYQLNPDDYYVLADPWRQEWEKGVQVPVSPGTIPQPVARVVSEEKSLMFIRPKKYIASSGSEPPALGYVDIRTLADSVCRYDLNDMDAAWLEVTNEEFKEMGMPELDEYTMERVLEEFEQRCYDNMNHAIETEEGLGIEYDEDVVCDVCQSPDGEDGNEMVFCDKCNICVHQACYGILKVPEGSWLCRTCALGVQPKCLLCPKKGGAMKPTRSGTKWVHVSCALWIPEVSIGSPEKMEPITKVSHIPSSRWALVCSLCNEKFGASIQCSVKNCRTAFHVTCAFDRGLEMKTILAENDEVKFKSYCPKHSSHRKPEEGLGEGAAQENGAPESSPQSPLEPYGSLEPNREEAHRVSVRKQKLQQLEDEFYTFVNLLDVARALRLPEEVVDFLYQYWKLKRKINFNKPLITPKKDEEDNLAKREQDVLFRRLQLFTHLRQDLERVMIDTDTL
UniProt Q9R1P4: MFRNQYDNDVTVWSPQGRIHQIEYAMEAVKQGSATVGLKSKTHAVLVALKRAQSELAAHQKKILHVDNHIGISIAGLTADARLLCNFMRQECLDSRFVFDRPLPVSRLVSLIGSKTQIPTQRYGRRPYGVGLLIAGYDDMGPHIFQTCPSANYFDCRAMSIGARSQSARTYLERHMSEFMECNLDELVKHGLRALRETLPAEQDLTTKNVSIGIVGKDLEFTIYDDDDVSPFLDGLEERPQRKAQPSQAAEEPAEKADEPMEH

Biological target: FLAG-tagged Jade1S (murine) (mouse) (UniProt Q6ZPI0)
Assay: affinity purification with mass spectrometry

binding: binds
Substance: PSMA1 (from UniProt Q9R1P4 1-263)

Results are given in words; binding and its absence hold for the method and conditions named. Binding seen in cells or lysates may run through a third protein. Here binding means that the protein was enriched with, or labelled near, the bait; the list need not be complete.
